By UniProt entry, the sequences of proteins in these tests, tags left out.
UniProt Q92560: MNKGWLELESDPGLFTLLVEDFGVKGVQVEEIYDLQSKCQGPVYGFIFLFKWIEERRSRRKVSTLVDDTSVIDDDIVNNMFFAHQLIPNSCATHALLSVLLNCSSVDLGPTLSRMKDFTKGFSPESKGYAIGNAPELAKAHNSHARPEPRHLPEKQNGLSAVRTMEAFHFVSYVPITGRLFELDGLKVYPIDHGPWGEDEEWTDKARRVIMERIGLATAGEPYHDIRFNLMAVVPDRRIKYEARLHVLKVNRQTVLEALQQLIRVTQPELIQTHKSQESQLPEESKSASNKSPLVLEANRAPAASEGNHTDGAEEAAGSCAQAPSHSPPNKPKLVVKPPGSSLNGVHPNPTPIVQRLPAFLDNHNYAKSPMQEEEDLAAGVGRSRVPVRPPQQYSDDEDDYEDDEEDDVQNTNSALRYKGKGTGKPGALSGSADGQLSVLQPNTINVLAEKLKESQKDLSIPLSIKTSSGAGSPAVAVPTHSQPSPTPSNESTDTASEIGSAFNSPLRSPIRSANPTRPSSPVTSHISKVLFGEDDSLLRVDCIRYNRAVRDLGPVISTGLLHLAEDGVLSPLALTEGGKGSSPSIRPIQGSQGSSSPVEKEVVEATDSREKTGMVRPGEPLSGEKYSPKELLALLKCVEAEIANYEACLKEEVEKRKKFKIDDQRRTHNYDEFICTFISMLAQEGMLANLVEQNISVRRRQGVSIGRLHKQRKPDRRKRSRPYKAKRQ
UniProt O75376: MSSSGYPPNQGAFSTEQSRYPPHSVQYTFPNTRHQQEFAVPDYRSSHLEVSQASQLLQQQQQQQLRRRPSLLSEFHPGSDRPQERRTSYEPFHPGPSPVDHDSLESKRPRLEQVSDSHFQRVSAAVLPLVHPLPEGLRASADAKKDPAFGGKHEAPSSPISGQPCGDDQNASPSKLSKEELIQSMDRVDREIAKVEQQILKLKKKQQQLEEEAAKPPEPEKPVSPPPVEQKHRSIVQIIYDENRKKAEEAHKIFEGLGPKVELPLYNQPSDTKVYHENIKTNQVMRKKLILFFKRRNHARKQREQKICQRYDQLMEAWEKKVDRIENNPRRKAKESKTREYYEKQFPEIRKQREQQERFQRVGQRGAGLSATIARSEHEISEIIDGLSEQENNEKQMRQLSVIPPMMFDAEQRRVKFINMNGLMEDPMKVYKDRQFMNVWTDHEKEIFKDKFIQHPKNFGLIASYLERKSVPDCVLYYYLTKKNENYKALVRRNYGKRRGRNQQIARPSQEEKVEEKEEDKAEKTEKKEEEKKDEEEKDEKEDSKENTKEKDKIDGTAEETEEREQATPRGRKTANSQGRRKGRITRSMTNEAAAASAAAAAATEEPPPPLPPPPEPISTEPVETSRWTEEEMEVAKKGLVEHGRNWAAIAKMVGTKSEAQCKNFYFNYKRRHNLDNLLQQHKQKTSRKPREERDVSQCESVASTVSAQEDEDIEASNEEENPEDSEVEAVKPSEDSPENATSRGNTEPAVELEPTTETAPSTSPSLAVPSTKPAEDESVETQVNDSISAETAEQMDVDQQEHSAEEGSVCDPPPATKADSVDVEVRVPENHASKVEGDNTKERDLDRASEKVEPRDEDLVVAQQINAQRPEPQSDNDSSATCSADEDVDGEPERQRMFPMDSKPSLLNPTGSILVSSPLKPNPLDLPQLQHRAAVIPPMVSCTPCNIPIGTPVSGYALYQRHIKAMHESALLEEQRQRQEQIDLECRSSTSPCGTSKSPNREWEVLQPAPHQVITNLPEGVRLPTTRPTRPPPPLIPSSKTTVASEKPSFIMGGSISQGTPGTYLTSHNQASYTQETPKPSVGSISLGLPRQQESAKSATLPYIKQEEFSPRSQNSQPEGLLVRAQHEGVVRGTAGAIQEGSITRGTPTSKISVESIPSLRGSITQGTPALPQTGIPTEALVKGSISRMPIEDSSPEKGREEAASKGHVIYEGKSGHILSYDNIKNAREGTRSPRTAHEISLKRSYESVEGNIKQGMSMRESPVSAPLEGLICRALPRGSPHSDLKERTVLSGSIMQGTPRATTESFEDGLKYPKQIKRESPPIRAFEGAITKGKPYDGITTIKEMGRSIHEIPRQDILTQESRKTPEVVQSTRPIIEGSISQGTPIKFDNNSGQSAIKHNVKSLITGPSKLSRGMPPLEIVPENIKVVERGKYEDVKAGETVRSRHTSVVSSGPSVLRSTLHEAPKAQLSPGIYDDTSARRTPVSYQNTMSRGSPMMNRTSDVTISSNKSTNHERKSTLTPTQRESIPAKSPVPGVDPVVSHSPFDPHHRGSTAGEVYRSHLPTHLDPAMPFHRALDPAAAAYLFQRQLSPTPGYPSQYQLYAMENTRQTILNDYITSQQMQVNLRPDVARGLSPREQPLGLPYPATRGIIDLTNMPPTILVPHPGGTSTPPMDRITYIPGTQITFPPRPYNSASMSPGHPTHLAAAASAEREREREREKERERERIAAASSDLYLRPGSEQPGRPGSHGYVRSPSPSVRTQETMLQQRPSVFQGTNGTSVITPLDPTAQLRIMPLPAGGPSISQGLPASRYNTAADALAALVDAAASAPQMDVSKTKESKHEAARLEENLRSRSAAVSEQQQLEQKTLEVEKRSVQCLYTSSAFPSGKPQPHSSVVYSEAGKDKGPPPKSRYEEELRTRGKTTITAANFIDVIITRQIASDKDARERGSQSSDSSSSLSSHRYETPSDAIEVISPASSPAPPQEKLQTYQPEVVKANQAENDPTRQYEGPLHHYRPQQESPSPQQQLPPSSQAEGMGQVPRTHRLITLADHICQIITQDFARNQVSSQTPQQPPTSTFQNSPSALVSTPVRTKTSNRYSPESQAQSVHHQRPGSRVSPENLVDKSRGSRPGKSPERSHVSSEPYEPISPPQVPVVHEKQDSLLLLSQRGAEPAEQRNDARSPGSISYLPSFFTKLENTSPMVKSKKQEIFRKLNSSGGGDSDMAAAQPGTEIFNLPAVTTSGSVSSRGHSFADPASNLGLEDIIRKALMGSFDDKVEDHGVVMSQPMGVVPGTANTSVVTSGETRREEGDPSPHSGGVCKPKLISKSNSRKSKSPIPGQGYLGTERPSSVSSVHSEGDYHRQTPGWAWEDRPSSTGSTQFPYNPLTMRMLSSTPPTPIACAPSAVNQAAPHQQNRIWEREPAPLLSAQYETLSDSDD

According to article doi:10.1101/346619:

Target: T1, TR4-BirA* fusion protein (human) (UniProt P49116)
T1 sequence: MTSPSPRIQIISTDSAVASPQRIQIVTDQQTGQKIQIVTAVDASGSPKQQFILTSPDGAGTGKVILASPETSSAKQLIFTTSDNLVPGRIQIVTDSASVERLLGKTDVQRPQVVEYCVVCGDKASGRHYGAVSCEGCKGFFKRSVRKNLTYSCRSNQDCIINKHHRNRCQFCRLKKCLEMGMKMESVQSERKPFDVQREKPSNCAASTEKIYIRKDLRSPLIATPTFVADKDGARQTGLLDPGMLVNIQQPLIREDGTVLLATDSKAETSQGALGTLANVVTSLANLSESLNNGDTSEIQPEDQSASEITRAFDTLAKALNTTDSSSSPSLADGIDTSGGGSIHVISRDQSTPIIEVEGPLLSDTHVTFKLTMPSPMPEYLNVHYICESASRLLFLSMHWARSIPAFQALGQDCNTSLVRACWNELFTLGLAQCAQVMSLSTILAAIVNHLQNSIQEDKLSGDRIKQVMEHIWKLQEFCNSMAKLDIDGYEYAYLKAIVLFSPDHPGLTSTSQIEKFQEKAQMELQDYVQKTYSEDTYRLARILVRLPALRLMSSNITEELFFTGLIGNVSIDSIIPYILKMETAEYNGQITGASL
Test: proximity labelling

binding, binds:
BRCA1 associated protein-1 (BAP1), endogenous (from UniProt Q92560 1-729) (enzyme)
HCF1, endogenous (human (endogenous in HUDEP-2))
nuclear receptor corepressor-1 (NCoR1), endogenous (from UniProt O75376 1-2440)

Results are given in words; binding and its absence hold for the method and conditions named. Binding seen in cells or lysates may run through a third protein. These calls come from enrichment with a bait or labelling near it, and not all partners need be listed. Where a sequence is shown, tags or fusion partners need not be part of it.
